Among the data in paper PMC6085760 are binding values, retold here.

By UniProt entry, the sequences of proteins in these tests, tags left out. Residues count along the entry.
UniProt P02769, residues 25-607: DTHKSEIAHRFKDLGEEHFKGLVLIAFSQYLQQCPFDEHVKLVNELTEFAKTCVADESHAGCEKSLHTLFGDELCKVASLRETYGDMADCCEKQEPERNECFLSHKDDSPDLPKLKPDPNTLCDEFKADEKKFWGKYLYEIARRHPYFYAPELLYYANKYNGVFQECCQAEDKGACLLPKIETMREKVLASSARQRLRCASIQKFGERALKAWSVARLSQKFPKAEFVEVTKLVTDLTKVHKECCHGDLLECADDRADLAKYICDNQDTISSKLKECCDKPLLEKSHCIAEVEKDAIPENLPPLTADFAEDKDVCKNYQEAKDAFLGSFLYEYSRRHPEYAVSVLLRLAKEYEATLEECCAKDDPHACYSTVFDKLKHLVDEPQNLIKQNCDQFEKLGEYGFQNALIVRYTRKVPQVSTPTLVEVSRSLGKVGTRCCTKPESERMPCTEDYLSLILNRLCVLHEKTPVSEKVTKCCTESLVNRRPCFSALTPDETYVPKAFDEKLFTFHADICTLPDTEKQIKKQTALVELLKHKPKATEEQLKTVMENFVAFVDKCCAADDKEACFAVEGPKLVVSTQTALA
UniProt P05067, residues 672-713: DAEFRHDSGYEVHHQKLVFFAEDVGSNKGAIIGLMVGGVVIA

Assay [1] addresses Bovine serum albumin (BSA) fibrils (bovine) (UniProt P02769). The assay is described as follows: condition: 30 µM for the protein and 0.5 nM for the fND; scanning transmission electron microscopy (STEM); BSA fibrils (30 µM protein) mixed with fND (0.5 nM), 30 min; grids washed, negative staining with 1% phosphotungstic acid; both purified.
The target in assay [2] is Aβ1-42 fibrils grown in vitro (UniProt P05067). The assay is described as follows: scanning transmission electron microscopy (STEM); Aβ fibrils grown in vitro incubated 30 min with fND solution (0.5 nM) under constant stirring; grids washed, negative staining with 1% phosphotungstic acid; both purified.

Results are given in words; binding and its absence hold for the method and conditions named. Some binding calls cover weakened binding; strength is not graded here.

B1: R7-CLPFFD peptide on the surface of nanodiamonds (functionalized nanodiamonds, fNDs) (peptide)
peptide: RRRRRRRCLPFFD
modifications: C-terminal amide
With B1, the binding result in assay [1] is on record as “no binding”; in assay [2], “binds”.
